Test results from patent US20240093200A1.
Results are given in words; binding and its absence hold for the method and conditions named. Binding seen in cells or lysates may run through a third protein. Some results given as binding are weak or reduced against the parent protein; the word gives no strength.

Protein sequences, listed by entry. Tags and fused reporters are not part of them.
UniProt Q15910: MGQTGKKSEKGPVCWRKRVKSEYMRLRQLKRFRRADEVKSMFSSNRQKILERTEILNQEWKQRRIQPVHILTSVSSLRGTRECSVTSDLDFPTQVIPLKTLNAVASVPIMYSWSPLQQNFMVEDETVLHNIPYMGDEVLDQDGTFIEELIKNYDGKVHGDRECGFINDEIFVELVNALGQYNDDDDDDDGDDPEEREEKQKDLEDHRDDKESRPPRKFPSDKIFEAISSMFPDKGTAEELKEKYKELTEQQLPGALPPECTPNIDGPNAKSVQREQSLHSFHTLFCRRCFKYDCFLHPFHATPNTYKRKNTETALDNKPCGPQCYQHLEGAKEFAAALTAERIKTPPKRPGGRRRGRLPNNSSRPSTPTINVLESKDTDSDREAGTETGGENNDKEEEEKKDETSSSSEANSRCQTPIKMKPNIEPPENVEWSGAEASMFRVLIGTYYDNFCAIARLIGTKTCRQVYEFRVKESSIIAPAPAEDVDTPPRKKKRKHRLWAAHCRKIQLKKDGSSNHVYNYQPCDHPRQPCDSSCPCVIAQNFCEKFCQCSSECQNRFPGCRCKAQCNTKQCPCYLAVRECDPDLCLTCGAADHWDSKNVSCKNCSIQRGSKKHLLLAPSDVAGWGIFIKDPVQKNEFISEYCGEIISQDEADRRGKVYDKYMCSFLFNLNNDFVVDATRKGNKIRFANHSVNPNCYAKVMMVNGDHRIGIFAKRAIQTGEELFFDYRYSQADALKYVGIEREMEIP
UniProt P25490: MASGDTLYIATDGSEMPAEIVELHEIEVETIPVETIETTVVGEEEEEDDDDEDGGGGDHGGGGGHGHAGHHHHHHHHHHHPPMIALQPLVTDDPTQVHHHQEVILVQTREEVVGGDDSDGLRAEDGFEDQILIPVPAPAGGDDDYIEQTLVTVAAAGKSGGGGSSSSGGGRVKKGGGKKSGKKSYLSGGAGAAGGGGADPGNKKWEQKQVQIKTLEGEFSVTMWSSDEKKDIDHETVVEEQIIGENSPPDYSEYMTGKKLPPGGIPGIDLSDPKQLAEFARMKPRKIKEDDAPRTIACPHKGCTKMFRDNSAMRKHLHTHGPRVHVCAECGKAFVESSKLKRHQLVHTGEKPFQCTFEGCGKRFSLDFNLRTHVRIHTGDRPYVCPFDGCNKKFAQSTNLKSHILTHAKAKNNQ

Tests used:
[1] = target: Enhancer of zeste homolog 2 (Ezh2) (human) (UniProt Q15910); test: co-immunoprecipitation from extract of T cells under exhaustion conditions, western blot
[2] = target: Enhancer of zeste homolog 2 (Ezh2) (human) (UniProt Q15910); test: co-immunoprecipitation (FIG. 15)
[3] = target: Enhancer of zeste homolog 2 (Ezh2) (human) (UniProt Q15910); test: co-immunoprecipitation: IP with Ezh2 antibody, blot probed with YY1 antibody

Measured: binding

Yin Yang 1 (YY1) (from UniProt P25490 1-414)
binds: [1] | [2] | [3]
